# From paper doi:10.1101/563957
# Amino acid sequences for entries named in this document (tags omitted). Residues count along the entry.
# UniProt P31421, residues 19-872: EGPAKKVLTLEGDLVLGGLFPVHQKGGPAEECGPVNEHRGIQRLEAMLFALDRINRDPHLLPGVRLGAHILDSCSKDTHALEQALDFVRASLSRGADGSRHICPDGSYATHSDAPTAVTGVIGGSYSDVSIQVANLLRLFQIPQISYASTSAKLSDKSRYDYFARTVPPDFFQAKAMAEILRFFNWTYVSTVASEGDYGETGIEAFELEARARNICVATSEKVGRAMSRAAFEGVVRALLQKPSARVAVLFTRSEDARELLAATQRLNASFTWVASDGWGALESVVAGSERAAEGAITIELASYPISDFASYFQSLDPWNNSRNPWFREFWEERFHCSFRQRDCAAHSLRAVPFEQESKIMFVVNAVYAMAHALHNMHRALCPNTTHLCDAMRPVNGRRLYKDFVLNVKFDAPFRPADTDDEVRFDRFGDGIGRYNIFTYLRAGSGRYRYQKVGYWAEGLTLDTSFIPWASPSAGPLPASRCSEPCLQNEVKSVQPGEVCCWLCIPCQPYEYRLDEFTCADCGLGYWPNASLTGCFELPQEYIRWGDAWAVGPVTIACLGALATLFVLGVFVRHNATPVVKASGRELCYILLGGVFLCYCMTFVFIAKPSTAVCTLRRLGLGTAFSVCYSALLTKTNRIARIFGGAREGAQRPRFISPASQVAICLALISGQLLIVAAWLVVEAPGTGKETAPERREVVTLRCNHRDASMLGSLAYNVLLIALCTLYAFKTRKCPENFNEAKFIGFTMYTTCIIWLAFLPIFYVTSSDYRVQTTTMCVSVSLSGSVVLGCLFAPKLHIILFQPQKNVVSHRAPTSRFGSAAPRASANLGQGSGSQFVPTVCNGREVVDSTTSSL
# Results are given in words; binding and its absence hold for the method and conditions named. In cells and extracts the contact can be indirect. Some entries that bind do so weakly or less than the wild type.
# What was measured:
# [1] = biological target: HA-SNAP-mGluR2 (not stated (rat or human cDNA cloned)) (UniProt P31421); test: FRET or BRET
# [2] = biological target: HA-SNAPf-mGluR2 (not stated (rat or human cDNA cloned)) (UniProt P31421); test: FRET or BRET
binding [1],binding [2],Substance
binds,,HA-SNAP-mGluR2 (from UniProt P31421 19-872) (receptor)
,binds,HA-SNAPf-mGluR2 (from UniProt P31421 19-872) (receptor)
